Experimental data published in US9358247B2, “Methods and compositions for promoting activity of anti-cancer therapies” (Oncology Research International Limited, priority 2006, dated 2016).
Where two headings read alike, the source gives them in different places.

How the values were obtained:
Experiment in all cases: Cancer cell growth inhibition, SRB dye assay (single agents and 50:50 IC50 mixtures)
Assay type in all cases: cell-based
A549 cell line = settings: Homo sapiens, 144 h, single agent, Example 2
Experimental: (§1) Cancer cells were seeded the day before application of drug in triplicate or quadruplicate in 96-well plates, allowed to grow in the presence of drug for 6 days before cell growth relative to untreated control wells was determined with a dye assay.
(§2) Cells were seeded in triplicate or quadruplicate at 3-4,000 per microtitre well in 90 μl of RPMI culture medium/10% foetal calf serum/penicillin, streptomycin mix, treated with 10 μl of drug (prepared in a dilution plate at 10× concentration required), and allowed to grow until the controls were nearly confluent (6 days).
(§3) SRB: Plates were washed with PBS, fixed with methylated spirits, washed with tap water and stained with 50 μL/well of SRB solution (sulforhodamine, 0.4% in 1% acetic acid), followed by washing with tap water and 1% acetic acid, solubilisation in Tris and absorbance read at 564 nm in an ELISA reader.
(§4) Data was collected using ELISA plate reader software—SOFTmax PRO3.1.2, then imported into EXCEL. The mean and SD of replicates were calculated as a % of control, after subtraction of the blank value (wells with no cells). A graph was plotted of % control vs dose of agent and IC50 (half maximal inhibitory concentration) values determined.
(§5) Tumour cells were seeded in duplicate in 96-well plates at 2-5,000 per microtitre well containing RPMI culture medium/10% foetal calf serum. The cells were allowed to grow until the controls were nearly confluent after 5-6 days. Plates were then washed with PBS, fixed in ethanol and stained with 50 μL/well of SRB solution (sulforhodamine, 0.4% in 1% acetic acid), followed by washing with 1% acetic acid and solubilisation in Tris. The absorbance was read at 564 nm using an ELISA reader.
(§6) The IC50, or concentration required to inhibit cell growth by 50%, was determined from the percentage inhibition versus concentration data using the probit calculation methods of Finney (Finney D J (1971). Probit Analysis. 3rd Edition. Cambridge University Press).
(§7) The inhibitory data from each mixture was used to determine an IC50 of IC50 value, where the concentrations used were the Multiplying Factor values. In order to determine the actual IC50 contribution of each component in the two-component mixture, the IC50 of IC50 value was multiplied by the IC50 of the individual component. This can then be used to determine the reduction in IC50 contribution (ie, reduction in dose) of the chemotherapeutic agent due to the presence of the steroid saponin in the mixture. A simpler way of determining the reduction in dose is to use the following simple formula: […]

HT29 cell line = settings: Homo sapiens, HT-29, 144 h, single agent, Example 2
Experimental: as §1, §2, §3, §4, §5, §6, §7

PC3 cell line = settings: Homo sapiens, PC-3, 144 h, single agent, Example 2
Experimental: as §1, §2, §3, §4, §5, §6, §7

DU145 cell line = settings: Homo sapiens, DU-145, 144 h, single agent, Example 2
Experimental: as §1, §2, §3, §4, §5, §6, §7

LNCap cell line = settings: Homo sapiens, 144 h, single agent, Example 2
Experimental: (§8) Cancer cells were seeded the day before application of drug in triplicate or quadruplicate in 96-well plates, allowed to grow in the presence of drug for 6 days before cell growth relative to untreated control wells was determined with a dye assay. Cells were seeded in triplicate or quadruplicate at 3-4,000 per microtitre well in 90 μl of RPMI culture medium/10% foetal calf serum/penicillin, streptomycin mix, treated with 10 μl of drug (prepared in a dilution plate at 10× concentration required), and allowed to grow until the controls were nearly confluent (6 days). SRB: Plates were washed with PBS, fixed with methylated spirits, washed with tap water and stained with 50 μL/well of SRB solution (sulforhodamine, 0.4% in 1% acetic acid), followed by washing with tap water and 1% acetic acid, solubilisation in Tris and absorbance read at 564 nm in an ELISA reader. Data was collected using ELISA plate reader software—SOFTmax PRO3.1.2, then imported into EXCEL. The mean and SD of replicates were calculated as a % of control, after subtraction of the blank value (wells with no cells). A graph was plotted of % control vs dose of agent and IC50 (half maximal inhibitory concentration) values determined. […] The cells were allowed to grow until the controls were nearly confluent after 5-6 days. […] The absorbance was read at 564 nm using an ELISA reader. […]

MCF7 cell line = settings: Homo sapiens, 144 h, single agent, Example 2
Experimental: as §8

K562 cell line = settings: Homo sapiens, 144 h
Experimental: as §1, §2, §3, §4
Tumour cells were seeded in duplicate in 96-well plates at 2-5,000 per microtitre well containing RPMI culture medium/10% foetal calf serum. […]

IC50 (A549 cell line): > 700 nM
IC50 (HT29 cell line): > 700 nM
IC50 (PC3 cell line): > 700 nM
IC50 (DU145 cell line): > 700 nM
IC50 (LNCap cell line): > 700 nM
IC50 (MCF7 cell line): > 700 nM
IC50 (K562 cell line; Example 6, value used to make up 50:50 IC50 mixtures, read-out: IC50 values used in assay): 90 nM
IC50 (K562 cell line; single agent, Example 2, read-out: IC50): 85 nM
Compound: Cc1ccc(NC(=O)c2ccc(CN3CCN(C)CC3)cc2)cc1Nc1nccc(-c2cccnc2)n1 [Imatinib]
